No constants are given. Whether binding was seen depends on the method and setting. Binding seen in cells or lysates may run through a third protein. Some binding calls cover weakened binding; strength is not graded here. Tags and fused reporters may be left off the sequences shown.

Assay [1] addresses T1, GFP–Spef1 (mouse) (mouse) (UniProt Q99JL1).
T1 sequence: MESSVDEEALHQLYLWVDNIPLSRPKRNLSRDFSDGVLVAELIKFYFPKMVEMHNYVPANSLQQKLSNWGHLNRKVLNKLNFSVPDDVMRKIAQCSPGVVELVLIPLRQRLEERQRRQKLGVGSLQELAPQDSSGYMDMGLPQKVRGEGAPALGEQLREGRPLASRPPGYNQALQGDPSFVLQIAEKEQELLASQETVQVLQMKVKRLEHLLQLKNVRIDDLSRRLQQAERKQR
Nature of the assay: co-IP; proteins transiently expressed in HEK293T cells, then co-immunoprecipitation.

Assay [2] addresses T2, GST–Ccdc13 (mouse) (mouse) (UniProt D3YV10).
T2 sequence: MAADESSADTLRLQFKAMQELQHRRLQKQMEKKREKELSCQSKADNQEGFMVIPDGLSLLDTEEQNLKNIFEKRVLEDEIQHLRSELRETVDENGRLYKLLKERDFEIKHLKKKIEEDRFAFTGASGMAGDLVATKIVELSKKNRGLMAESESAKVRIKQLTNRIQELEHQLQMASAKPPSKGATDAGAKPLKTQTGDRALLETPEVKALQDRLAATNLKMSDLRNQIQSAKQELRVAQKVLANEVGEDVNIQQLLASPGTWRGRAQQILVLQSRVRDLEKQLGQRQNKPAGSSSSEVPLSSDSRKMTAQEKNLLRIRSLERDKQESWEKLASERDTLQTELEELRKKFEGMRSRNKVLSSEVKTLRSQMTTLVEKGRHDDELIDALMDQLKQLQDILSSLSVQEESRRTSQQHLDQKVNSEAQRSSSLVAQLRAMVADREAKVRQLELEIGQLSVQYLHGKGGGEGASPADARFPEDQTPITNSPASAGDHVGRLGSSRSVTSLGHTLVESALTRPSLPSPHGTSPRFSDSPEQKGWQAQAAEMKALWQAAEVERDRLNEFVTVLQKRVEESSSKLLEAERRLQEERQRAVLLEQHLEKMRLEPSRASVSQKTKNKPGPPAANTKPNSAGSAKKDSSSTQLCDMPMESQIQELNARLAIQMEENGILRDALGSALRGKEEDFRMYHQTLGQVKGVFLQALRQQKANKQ
Nature of the assay: pull-down; in vitro GST pull-down, GST-Ccdc13 (mouse) with mouse Spef1.

B1: Mouse Ccdc13 expressed in HEK293T cells (protein, UniProt D3YV10 1-709)
chain: MAADESSADTLRLQFKAMQELQHRRLQKQMEKKREKELSCQSKADNQEGFMVIPDGLSLLDTEEQNLKNIFEKRVLEDEIQHLRSELRETVDENGRLYKLLKERDFEIKHLKKKIEEDRFAFTGASGMAGDLVATKIVELSKKNRGLMAESESAKVRIKQLTNRIQELEHQLQMASAKPPSKGATDAGAKPLKTQTGDRALLETPEVKALQDRLAATNLKMSDLRNQIQSAKQELRVAQKVLANEVGEDVNIQQLLASPGTWRGRAQQILVLQSRVRDLEKQLGQRQNKPAGSSSSEVPLSSDSRKMTAQEKNLLRIRSLERDKQESWEKLASERDTLQTELEELRKKFEGMRSRNKVLSSEVKTLRSQMTTLVEKGRHDDELIDALMDQLKQLQDILSSLSVQEESRRTSQQHLDQKVNSEAQRSSSLVAQLRAMVADREAKVRQLELEIGQLSVQYLHGKGGGEGASPADARFPEDQTPITNSPASAGDHVGRLGSSRSVTSLGHTLVESALTRPSLPSPHGTSPRFSDSPEQKGWQAQAAEMKALWQAAEVERDRLNEFVTVLQKRVEESSSKLLEAERRLQEERQRAVLLEQHLEKMRLEPSRASVSQKTKNKPGPPAANTKPNSAGSAKKDSSSTQLCDMPMESQIQELNARLAIQMEENGILRDALGSALRGKEEDFRMYHQTLGQVKGVFLQALRQQKANKQ
As to B1, the binding result in assay [1] was “binds”.

B2: Mouse Spef1, protein of the GST pull-down (protein, UniProt Q99JL1 1-234)
chain: MESSVDEEALHQLYLWVDNIPLSRPKRNLSRDFSDGVLVAELIKFYFPKMVEMHNYVPANSLQQKLSNWGHLNRKVLNKLNFSVPDDVMRKIAQCSPGVVELVLIPLRQRLEERQRRQKLGVGSLQELAPQDSSGYMDMGLPQKVRGEGAPALGEQLREGRPLASRPPGYNQALQGDPSFVLQIAEKEQELLASQETVQVLQMKVKRLEHLLQLKNVRIDDLSRRLQQAERKQR
For the molecule B2, the binding result in assay [2] is “binds”.

Values taken from PMC12147715.
